Reference: PubChem BioAssay AID638 (SRMLSC, 2007)
Hit rate of the full screen: of about 1,300 compounds, about 65 (5%) were called active.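 Rule for the calls: active = growth inhibition reaching a set limit at one or more tested doses; inactive = the rest.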 The list shows a part of the results. Potency and affinity values are given separately.

Assay: wild-type E. coli BW25113 antibacterial activity – OD615, dose response (AID 638)
Conditions: at 100 µM (top of the series) unless noted
Method in brief: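 Assay system: E. coli BW25113 wild type; buffer or medium: Kanamycin-supplemented LB broth; signal: optical density (absorbance) at 615 nm; controls: chloramphenicol 30 µM control; doses: compound concentration series; times: bacterial exposure to compound 20 h at 37 °C; evaluation: IC50 from 4-parameter logistic, bounds fixed 0–100%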

Growth inhibition, inactive:
Cc1ccc(C)c(SCC(=O)Nc2nnc(-c3ccccc3)o2)c1 2.5%
O=C(c1ccc(COc2ccccc2Cl)o1)N1CCN(c2ccccc2)CC1 -2.07%
CCc1ccc2[nH]c(=O)c(C(c3nnnn3CCOC)N3CCN(c4ccc(F)cc4)CC3)cc2c1 (stereo not drawn) -0.14%
O=C(CSc1nc2ccccc2[nH]1)Nc1cc(C(F)(F)F)ccc1N1CCOCC1 14.2%
O=C(c1cc2nc(-c3ccco3)cc(C(F)(F)F)n2n1)N1CCN(c2ccccc2)CC1 -5.7%
N#C/C(=C\C1CC=CCC1)c1nc2ccccc2[nH]1 (stereo not drawn) 5.8%
O=C(Nc1ccc(Cl)c(Cl)c1)N1CCSC1c1ccco1 (stereo not drawn) 15.6%
COc1ccccc1-c1cc(C(=O)N2CCN(c3ccccc3OC)CC2)no1 -0.79%
CCOC(=O)c1c(-c2cccs2)csc1NC(=O)CN1CC(C)OC(C)C1 (stereo not drawn) -7.6%
CCOC(=O)Cc1nnc2c(Nc3ccc(Cl)cc3)nc3nonc3n12 4.59%
O=C(NC1CCCC1)c1sc(=S)n2c1[nH]c(=O)c1ccccc12 -2.92%
CC1(C)CC(=O)C=C(NCCN2CCN(C(=O)Nc3ccc(Cl)c(Cl)c3)CC2)C1 16.5%
N#Cc1nc(Cc2ccccc2)oc1NCc1ccccc1Cl 14.5%
CCN(c1ccccc1)S(=O)(=O)c1ccc(C(=O)Nc2nnc(COC)o2)cc1 3.69%
COc1ccccc1N1CCN(C(=O)COc2ccc(C)cc2Br)CC1 12.1%
N#Cc1nc(COc2ccccc2)oc1N1CCN(Cc2ccccc2)CC1 -11%
COc1cc(OC)cc(-n2nnnc2SCC(=O)N2CCCc3ccccc32)c1 -0.65%
CCOC(=O)Nc1ccc2c(c1)N(C(=O)N1CCN(C)CC1)c1ccccc1S2 11.8%
CC(C)Cn1c(=O)c(C(=O)Nc2ccncc2)c(O)c2ccccc21 -8.3%
O=C(c1ccc(COc2ccc(Cl)cc2)o1)N1CCN(Cc2ccc3c(c2)OCO3)CC1 -1.84%
CCc1ccccc1N(CC)C(=O)CCc1nc(-c2ccc(C)cc2)no1 -1.17%
CCOC(=O)C1CCN(c2nc3cc(OC)ccc3cc2C#N)CC1 4.12%
Cc1nc2c(C(=O)NCCC3=CCCCC3)c[nH]n2c(=O)c1Cl 5.42%
O=C(Cn1c(C(=O)NCc2ccco2)cc2sccc21)c1ccccc1 3.36%
COc1nnc(-c2ccc(N3CCCCC3)c(N)c2)c2ccccc12 5.26%
c1ccc(-c2noc(-c3cccc4ccccc34)n2)cc1 2.3%
C=C(C)COc1ccc(-c2[nH]ncc2-c2ccc(OC)c(OC)c2)c(O)c1 -5.87%
CCc1cc2cc(C(=O)N3CCN(Cc4ccccc4)CC3)sc2s1 1.79%
O=C(CN1CCN(c2nc(-c3ccc(F)cc3)cs2)CC1)NCc1ccc2c(c1)OCO2 -2.02%
Cc1cc(C)c2cc(CN(CCO)C(c3nnnn3Cc3ccc(F)cc3)C(C)C)c(=O)[nH]c2c1 (stereo not drawn) -2.71%
O=C(CC1CCCCC1)c1c(O)c2ccccc2oc1=O 6.46%
COc1ccc(-c2c3c(=O)n(C)c(=O)n(C)c3cn2-c2ccccc2)cc1 -0.92%
COc1ccc(-n2c(Cc3cccn3C)nnc2SCC(=O)Nc2ccc(C)c(Cl)c2)cc1 -1.46%
CCc1nc2ccccc2c(=O)n1NC(=O)c1c(O)c2ccccc2[nH]c1=O -2.8%
CC(C)C1O/C(=N/C(=O)Nc2ccc(Cl)c(Cl)c2)NC1=O (stereo not drawn) 15.6% [at 50 µM]
CCCCOC(=O)Nc1cc(C(=O)OC)ccc1C(=O)OC -1.46%
COc1cc(/C=C(/C#N)c2ccc(F)cc2)ccc1OCc1ccc(C(=O)O)o1 -7.91%
Cc1cc(N2CCC(C(=O)Nc3ccc(F)cc3)CC2)nc(-c2ccccc2)n1 -7.63%
O=C(Nc1nc(-c2ccccn2)cs1)C1COc2ccccc2O1 (stereo not drawn) 3.24%
CCCCCOC(=O)c1[nH]c2c(c1C)C(=O)C(C(=O)OC)C(C)C2 (stereo not drawn) -12.8%
CCOC(=O)C1(N(CC)CC)Sc2cc(C)ccc2NC1=O (stereo not drawn) -8.78%
CCn1cc(Br)c(C(=O)Nc2ccc(C(=O)OC(C)C)cc2)n1 13.3%
COCc1nnc(NC(=O)c2ccc(S(=O)(=O)N(C)C3CCCCC3)cc2)o1 -0.64%
Cc1ccc(-c2csc3ncn(-n4c(C)ccc4C)c(=O)c23)o1 -17.4%
COc1ccc(S(=O)(=O)Nc2ccccc2C(=O)NCc2ccco2)cc1Br -8.03%
Cc1noc(C)c1S(=O)(=O)N(CCc1ccccc1)Cc1ccccc1 1.54%
CC1=C(C#N)c2nc(N)c(C#N)c(C)c2/C1=C\c1ccccc1 -0.01%
c1ccc(-c2nc(N3CCCCCC3)nc(-n3ccnc3)n2)cc1 6.7%
COc1cc2c(C#N)c(N3CCc4ccccc4C3)nc(N)c2c(N)n1 -3.62%
CCCCSC1=C(C#N)C(c2ccccc2C)C(C(=O)OCC)C(=O)N1 (stereo not drawn) -1.85%
CCCCCOC(=O)c1ccc(NC(=O)c2ccco2)cc1 -0.06%
O=C(c1cccc(COc2ccc(Cl)cc2Cl)c1)N1CCN(c2ccccn2)CC1 -14.7%
CCc1ccccc1NS(=O)(=O)c1ccc(SC)cc1 -2.8%
CC(C)Cn1c(=O)c(C(=O)Nc2cnccn2)c(O)c2ccccc21 16.1%
COc1cccc(-c2cc(C(F)(F)F)nc(N3CCOCC3)n2)c1 8.99%
c1ccc(N2CCN(c3ncnc4c3oc3ccccc34)CC2)cc1 -9.68%
COc1ccccc1OCC(=O)N(Cc1nc(-c2ccccc2)no1)C1CCCCC1 -2.24%
[O-][N+]1=c2ccc(Nc3ccccc3)cc2=NC12CCCCC2 15.1%
O=C(Nc1ccc(Cl)c(C(F)(F)F)c1)c1ccco1 14.6%
COc1ccc(NS(=O)(=O)c2ccc3c(c2)Cc2ccccc2-3)cn1 5.81%
Cc1cccc(N2CCN(C(=O)C34CC5CC(CC(C5)C3)C4)CC2)c1C -0.38%
COC(=O)c1c(NC(=O)CCc2ccc(C)o2)sc(C)c1C 3.59%
CCOc1ccccc1-c1nn2c(Cc3ccccc3)nnc2s1 0.14%
O=C1c2ccccc2C(O)(Cc2ccccc2)N1C1CCCCC1 (stereo not drawn) -0.01%
N#Cc1c(NC(=O)c2ccc(Cn3cc(Br)cn3)o2)sc2c1CCCCCC2 -7.72%
O=c1c2ccccc2nc(SCc2cn3ccsc3n2)n1-c1ccccc1F -8.01%
Cc1ccccc1S(=O)(=O)Cc1ccc(C(=O)N2CCN(c3cccc(C)c3C)CC2)o1 7.63%
O=C(Nc1ccc2c(c1)OCO2)c1ccc(COc2ccc3c(c2)CCC3)o1 3.11%
Clc1ccc(C2=Nn3c(nnc3-c3n[nH]c4c3CCC4)SC2)cc1Cl 1.98%
CC1CC(C)CN(c2ncnc3c2cnn3Cc2ccc(Cl)cc2)C1 (stereo not drawn) 0.14%
O=S(=O)(Nc1ncnc2sc3c(c12)CCC3)c1ccc(Cl)s1 1.27%
CCOC(=O)c1c(NS(=O)(=O)c2cccc(OC)c2)sc2c1CCC2 -5.74%
Cc1ccc2ccc(S(=O)(=O)n3nc(C)cc3C)cc2c1 -6.55%
O=C(Nc1ccc(Cl)cc1)N(Cc1cccs1)Cc1cccs1 -8.41%
O=C(Nc1nc(-c2cccs2)cs1)c1ccc(Cl)s1 -19.4%
c1csc(-c2nc3nc4ccccc4nc3n2Cc2ccc3c(c2)OCO3)c1 -7.29%
Cc1ccccc1Cn1nc(C)c(NC(=O)c2noc3c2CCc2ccccc2-3)c1C -22.3%
CCn1c(SCC(=O)Nc2nc(-c3ccccc3)cs2)nnc1-c1ccccc1O -7.1%
Cc1cccc(Nc2nc(-c3ccccn3)cs2)n1 4.37%
CCCn1c(CN(Cc2ccccc2)Cc2ccccc2)nc2c1c(=O)n(C)c(=O)n2C -4.03%
CCC1CCCCN1S(=O)(=O)c1ccc2c(c1)CCN2C(=O)C1CCC1 (stereo not drawn) 9.61%
CC(C)COc1ccc(-c2nnc(-c3ccco3)o2)cc1 -6.53%
CC(C)(C)c1csc(NC(=O)c2ccc(Cl)s2)n1 4.06%
O=C1Nc2ccccc2C12OCC(COc1ccc(Cl)cc1)O2 (stereo not drawn) 12.3%
Cc1cc(N2CCCCC2)nc(SCc2ccc(C#N)cc2)n1 -5.55%
Cc1cc(Nc2ccccc2)n(-c2nc3ccccc3[nH]2)n1 11.1%
C=C(C)COc1ccc(-c2n[nH]c(C)c2Oc2ccccc2OC)c(O)c1 0.02%
CC(C)(C)c1ccc(OCC(=O)NCc2ccco2)c(Br)c1 2.43%
Cc1cc(C)n(-c2nc(NC(C)C)nc(NC(C)C)n2)n1 5.05%
CCCCOc1ccc(-c2c(C#N)c(N)nc(SCC(N)=O)c2C#N)cc1 -0.51%
COc1ccc(CCNC(=O)c2cc3sc(Cl)cc3n2C)cc1OC 1.06%
CCOC(=O)c1cc2sccc2n1CC(=O)N1CCCc2ccccc21 -1.36%
COc1ccc(C(C)(C)C)cc1NC(=O)Nc1ccc2c(c1)OCO2 9.23%

A draw from above in order of number of heavy atoms, descending:
Growth inhibition, inactive:
Cc1ccccc1S(=O)(=O)Cc1ccc(C(=O)N2CCN(c3cccc(C)c3C)CC2)o1 7.63%
COc1cc(/C=C(/C#N)c2ccc(F)cc2)ccc1OCc1ccc(C(=O)O)o1 -7.91%
O=C(Cn1c(C(=O)NCc2ccco2)cc2sccc21)c1ccccc1 3.36%
c1ccc(-c2nc(N3CCCCCC3)nc(-n3ccnc3)n2)cc1 6.7%
c1ccc(-c2noc(-c3cccc4ccccc34)n2)cc1 2.3%
CCc1ccccc1NS(=O)(=O)c1ccc(SC)cc1 -2.8%
